# Source: PubChem BioAssay AID504784 (Drosophila RNAi Screening Center, 2011)
# Purpose: 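Genome-wide knock-down for genes giving too much or too little stored lipid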 (primary screen)
# System: Drosophila Kc167 embryonic cells
# Knock-down reagent: long dsRNA against Drosophila genes, about 250 ng dsRNA per well
# Timing: 4 days
# Conditions: cells fed 400 µM oleic acid bound to BSA
# Read-out: 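Cells imaged and segmented; ratio of lipid droplet area to nuclear area, log-transformed, then normalised as a B-score over the screen; higher means more stored lipid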
# Direction: droplet/nuclear area B-score: higher = more stored lipid (overstorage)
# The screen tested about 17,000 reagents; shown is an unselected part of those with a known target gene and a result. 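Each column is one replicate's B-score; the combined score over replicates was not deposited, so single values may mislead.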 The numbers tell different reagents against one gene apart. Names joined by + are all predicted targets of the reagent.
predicted target,reagent no.,"droplet/nuclear area B-score, replicate 1","droplet/nuclear area B-score, replicate 2","droplet/nuclear area B-score, replicate 3"
eys (GeneID 3771890),1,-1.75,0.824,
eys (GeneID 3771890),2,0.705,0.629,
eys (GeneID 3771890),3,0.526,-1.62,
CG3513 (GeneID 33590),1,0.149,0.14,
su(w[a]) (GeneID 31054),1,-0.0412,,
CG1371 (GeneID 36053),1,1.03,0.506,
CG8736 (GeneID 35841),1,1.23,0.0772,
CG32259 (GeneID 317942),1,0.00715,-0.423,
E(spl)mdelta-HLH (GeneID 43150),1,-0.213,-0.0822,
CG18367 (GeneID 37255),1,1.25,0.297,-1.52
CG32820 + CG17450 + CG32819,1,-0.531,1.75,
CG32820 + CG17450 + CG32819,2,0.345,-1.91,
CG2816 (GeneID 33595),1,-1.19,-0.37,
CG4942 (GeneID 39044),1,-2.8,-0.344,
GstO2 (GeneID 38974),1,2.68,-0.0631,
CG7903 (GeneID 43554),1,-0.0172,-1.96,
Mocs1 (GeneID 39238),1,0.154,1.2,
CG8908 (GeneID 37293),1,1.3,0.326,
Vm26Ac (GeneID 33828),1,-0.581,-0.00911,
hpRNA:CR18854 (GeneID 10178800),1,-0.771,-2.38,
dpr11 (GeneID 40800),1,-0.216,0.481,
dpr11 (GeneID 40800),2,0.00987,-0.429,
dpr11 (GeneID 40800),3,0.361,-0.81,
nuf (GeneID 39572),1,-1.81,0.495,
nuf (GeneID 39572),2,-1.35,0.374,
nuf (GeneID 39572),3,0.366,1.07,
CG3740 (GeneID 31119),1,0.856,0.499,
Nup153 (GeneID 32630),1,-2.07,-2.32,1.08
Ugt36A1 + CG15418,1,1.24,-0.748,
CG11275 (GeneID 37534),1,-1.49,-0.987,
Arl8 (GeneID 40961),1,1.1,-1.54,
SIFa (GeneID 3346202),1,-0.68,-0.456,
AOX3 (GeneID 41896),1,-0.0751,-0.174,
CG12104 (GeneID 38187),1,-0.332,-4.62,
CG6180 (GeneID 34683),1,0.0273,-0.541,
CG3868 (GeneID 39580),1,0.769,1.04,-0.855
CG15445 (GeneID 33094),1,1.22,0.827,
bigmax (GeneID 43293),1,-0.00751,,
mino (GeneID 43350),1,1.11,-0.344,
Nab2 (GeneID 42897),1,2.3,-1.36,
CG6294 + CG6299,1,1.12,-1.44,
mago (GeneID 37402),1,-0.748,0.112,
CG3916 (GeneID 41484),1,-0.0439,0.39,
Dop1R1 (GeneID 41726),1,-0.192,0.279,
Dop1R1 (GeneID 41726),2,1.53,-0.46,
VhaAC39-1 (GeneID 31342),1,0.169,,
CG2126 (GeneID 43748),1,-0.958,-0.463,
CG12112 (GeneID 31794),1,-0.914,-0.0417,0.483
Gp93 (GeneID 43354),1,0.695,1.03,
Nxf3 (GeneID 317878),1,-0.249,-0.641,
MED18 (GeneID 31140),1,-0.00833,0.485,
CG9692 (GeneID 39865),1,-0.406,-1.91,
CG14435 (GeneID 31628),1,0.319,-1.7,
CG14435 (GeneID 31628),2,-0.757,-0.813,
CG13947 (GeneID 33250),1,-1.66,-0.0752,
mle (GeneID 35523),1,-0.0843,1.05,
Coq7 + shf,1,-1.8,0.128,
CG5608 (GeneID 41543),1,0.191,-0.429,
CG2200 (GeneID 32258),1,2.37,0.323,-0.257
mab-21 (GeneID 44127),1,-1.24,0.116,
Cdk2 (GeneID 42453),1,-0.328,0.164,
CG5853 (GeneID 34322),1,-0.982,-0.177,
CG5853 (GeneID 34322),2,0.08,-0.966,
CR13656 (GeneID 8674041),1,0.22,0.138,
CR13656 (GeneID 8674041),2,0.108,0.283,
ewg (GeneID 30975),1,0.351,-1.27,-0.0331
CG9338 (GeneID 35357),1,-2.15,-0.789,
CG17440 (GeneID 31879),1,-2.52,0.013,-0.651
CG10681 (GeneID 39425),1,-3.7,-0.551,
CG10681 (GeneID 39425),2,-0.279,-0.608,
Or71a (GeneID 39641),1,-0.179,1.36,
CG15022 (GeneID 38549),1,-0.478,0.162,
CR11700 (retired record) (GeneID 5740245),1,-0.0678,0.114,
CG10013 (GeneID 41494),1,0.565,0.78,
SMC6 (GeneID 42876),1,-0.114,0.429,
CG1737 (GeneID 32077),1,-0.569,1.11,
spd-2 (GeneID 39850),1,-0.00221,-0.55,-1.36
tef (GeneID 36920),1,0.00505,,
tef (GeneID 36920),2,-1.35,-1.16,
CG12983 (GeneID 40319),1,0.678,-1.06,
CG9416 (GeneID 37223),1,-1.58,-0.0178,
CG8750 (GeneID 50285),1,0.494,-1.93,
CG13318 (GeneID 41048),1,-0.106,0.209,
